This is an account of results in article PMC10290081.

Protein sequences, listed by entry. Tags and fused reporters are not part of them. Lines headed by an entry give the natural chain unless they say otherwise; changes in a name come on top.
UniProt Q9HBA0: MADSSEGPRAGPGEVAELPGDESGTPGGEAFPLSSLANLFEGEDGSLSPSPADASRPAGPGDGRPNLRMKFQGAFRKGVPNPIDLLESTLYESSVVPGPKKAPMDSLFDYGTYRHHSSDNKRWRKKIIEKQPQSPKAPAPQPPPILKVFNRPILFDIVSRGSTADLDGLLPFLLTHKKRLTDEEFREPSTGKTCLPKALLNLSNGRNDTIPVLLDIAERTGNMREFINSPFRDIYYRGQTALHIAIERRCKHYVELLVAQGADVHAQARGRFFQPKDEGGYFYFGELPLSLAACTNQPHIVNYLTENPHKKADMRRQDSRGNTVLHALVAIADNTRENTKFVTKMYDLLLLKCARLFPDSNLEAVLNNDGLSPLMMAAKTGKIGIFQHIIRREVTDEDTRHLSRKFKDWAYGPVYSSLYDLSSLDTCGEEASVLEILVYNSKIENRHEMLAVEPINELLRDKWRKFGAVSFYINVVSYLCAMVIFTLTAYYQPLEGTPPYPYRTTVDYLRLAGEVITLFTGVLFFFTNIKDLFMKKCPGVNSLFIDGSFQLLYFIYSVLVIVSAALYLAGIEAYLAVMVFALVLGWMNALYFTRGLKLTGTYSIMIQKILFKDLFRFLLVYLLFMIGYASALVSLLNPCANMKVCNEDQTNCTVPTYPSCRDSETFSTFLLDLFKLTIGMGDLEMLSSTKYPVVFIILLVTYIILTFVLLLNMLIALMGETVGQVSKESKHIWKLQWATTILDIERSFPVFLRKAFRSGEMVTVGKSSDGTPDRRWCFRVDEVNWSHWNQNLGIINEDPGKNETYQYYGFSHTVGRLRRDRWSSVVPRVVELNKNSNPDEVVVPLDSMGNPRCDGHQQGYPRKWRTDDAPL
UniProt P61586: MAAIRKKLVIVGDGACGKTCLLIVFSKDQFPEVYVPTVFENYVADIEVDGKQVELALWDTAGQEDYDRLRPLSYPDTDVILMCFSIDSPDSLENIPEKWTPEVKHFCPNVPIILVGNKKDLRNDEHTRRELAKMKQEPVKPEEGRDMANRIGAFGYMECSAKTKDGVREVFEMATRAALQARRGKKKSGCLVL
UniProt P62745: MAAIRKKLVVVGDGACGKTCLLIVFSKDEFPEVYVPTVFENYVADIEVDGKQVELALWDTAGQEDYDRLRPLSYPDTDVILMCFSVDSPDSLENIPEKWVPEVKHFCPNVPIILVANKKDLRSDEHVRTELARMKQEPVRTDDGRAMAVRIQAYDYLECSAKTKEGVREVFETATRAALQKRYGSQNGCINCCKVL
UniProt P08134: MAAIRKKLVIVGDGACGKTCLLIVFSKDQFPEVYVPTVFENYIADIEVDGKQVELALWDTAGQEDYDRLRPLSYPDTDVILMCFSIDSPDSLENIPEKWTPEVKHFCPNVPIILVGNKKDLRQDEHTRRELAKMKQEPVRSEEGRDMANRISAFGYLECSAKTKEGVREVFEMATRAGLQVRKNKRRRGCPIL

Assay [1] concerns the target Homo sapiens full-length TRPV4 (hTRPV4), C-terminal FLAG-tag and 10x His-tag (human) (UniProt Q9HBA0). Nature of the assay: co-purification (anti-FLAG resin, SEC) with western blot; FLAG-tagged TRPV4 overexpressed alone in HEK293S GnTI- cells, purified by anti-FLAG M2 resin (wash with 500 mM NaCl) and SEC; final purified samples blotted with RhoA-, RhoB- and RhoC-specific antibodies. On the technique in general: In western blotting, separated proteins are transferred to a membrane and probed.

For assay [2] the target is unchanged. Nature of the assay: cryo-EM structure; single-particle cryo-EM of TRPV4 purified in detergent (LMNG/CHS/GDN, 20 mM Tris pH 8.0, 150 mM NaCl) with copurified endogenous Rho GTPase; ligand-free, with 20 uM GSK279, with 20 uM GSK101 + 2 mM GTPgammaS, with 40 uM 4alpha-PDD + 2 mM GTPgammaS; both purified.
The next assay concerns the target Myc-tagged RhoA D76A (UniProt P61586). Nature of the assay: co-IP; HEK293T cells transfected with TRPV4-GFP and RhoA-Myc (WT or mutant), lysed in IP Lysis Buffer (1% NP-40, 150 mM NaCl), antibody (mouse anti-Myc) on Protein G Dynabeads, 1 h at 4 C, western blot; also in the presence of GSK101.
The target of another assay is Myc-tagged RhoA D76L (UniProt P61586). Described as above.
For the next assay, the target named is Myc-tagged RhoA E54H (UniProt P61586). The assay is described as above.
The target of a further assay is Myc-tagged WT RhoA (UniProt P61586). The assay is described as above.

No constants are given. Whether binding was seen depends on the method and setting. For some assays here: Binding seen in cells or lysates may run through a third protein. Some results given as binding are weak or reduced against the parent protein; the word gives no strength.

With “RhoB (endogenous, copurified with TRPV4) (from UniProt P62745 1-196)”, the binding entry in assay [1] is “binds”.

For “RhoA (endogenous Rho GTPase copurified with overexpressed TRPV4) (from UniProt P61586 1-193)”, the binding entry in assay [1] and in assay [2] was “binds” in each case.

Consider “GFP-tagged WT TRPV4 (from UniProt Q9HBA0 1-871)”, for which the binding entry with Myc-tagged RhoA D76A is reported as “binds weakly”; in the assay with Myc-tagged RhoA D76L, “binds weakly”; with Myc-tagged RhoA E54H, “binds weakly”; with Myc-tagged WT RhoA, “binds”.

For the substance “RhoC (endogenous, copurified with TRPV4) (from UniProt P08134 1-193)”, the binding result in assay [1] is “binds”.
